Test results reported in paper PMC10086758.
No constants are given. Whether binding was seen depends on the method and setting. Binding seen in cells or lysates may run through a third protein. Some binding calls cover weakened binding; strength is not graded here.

Chains of the proteins cited; added tags and fusions are not shown.
UniProt O88536: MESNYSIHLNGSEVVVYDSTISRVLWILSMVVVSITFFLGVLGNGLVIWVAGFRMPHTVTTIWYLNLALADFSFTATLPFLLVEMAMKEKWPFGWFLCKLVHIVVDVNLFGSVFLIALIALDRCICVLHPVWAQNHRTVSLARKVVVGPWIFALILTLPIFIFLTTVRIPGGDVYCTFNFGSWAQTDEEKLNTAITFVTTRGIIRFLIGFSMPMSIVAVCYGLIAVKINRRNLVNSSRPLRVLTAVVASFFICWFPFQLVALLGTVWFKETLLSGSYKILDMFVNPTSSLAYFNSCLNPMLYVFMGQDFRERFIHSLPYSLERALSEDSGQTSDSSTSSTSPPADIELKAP

Target: T1, sphingosine-1-phosphate receptor 4 (UniProt Q9Z0L1)
T1 sequence: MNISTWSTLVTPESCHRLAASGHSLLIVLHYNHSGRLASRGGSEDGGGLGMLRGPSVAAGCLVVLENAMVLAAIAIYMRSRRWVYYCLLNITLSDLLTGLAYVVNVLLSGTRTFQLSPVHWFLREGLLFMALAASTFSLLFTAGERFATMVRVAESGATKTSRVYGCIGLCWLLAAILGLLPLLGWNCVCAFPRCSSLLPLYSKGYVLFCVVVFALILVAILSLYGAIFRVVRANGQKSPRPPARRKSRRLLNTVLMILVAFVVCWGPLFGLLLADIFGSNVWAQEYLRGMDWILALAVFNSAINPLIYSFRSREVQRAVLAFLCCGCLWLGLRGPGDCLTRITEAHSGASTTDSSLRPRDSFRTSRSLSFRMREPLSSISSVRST
Test: co-IP; whole-cell lysate of adenovirus-treated BMDMs from WT mice; anti-FLAG antibody at 4°C overnight, magnetic beads 2 h at 4°C, three washes with lysis buffer, western blot for FLAG and FPR2

binding: binds
Substance: formyl peptide receptor 2 (from UniProt O88536 1-351)
